{"sequences": {"note": "Chains of the proteins cited; added tags and fusions are not shown. Residues count along the entry.", "UniProt B9VUU3, 1227-1440, stated change not applied": "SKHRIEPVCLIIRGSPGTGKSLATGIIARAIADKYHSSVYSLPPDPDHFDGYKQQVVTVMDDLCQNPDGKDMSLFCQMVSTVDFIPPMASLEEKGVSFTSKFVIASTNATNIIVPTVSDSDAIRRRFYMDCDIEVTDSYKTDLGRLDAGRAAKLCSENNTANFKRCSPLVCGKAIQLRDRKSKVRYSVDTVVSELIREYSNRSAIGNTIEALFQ"}, "source": "paper doi:10.1101/2022.10.06.511132v1", "about": "“Development of Enterovirus anti-viral agents that target the viral 2C protein” (biorxiv, 2022)", "target": "T1, EV-A71 Δ2C^116-329 (Enterovirus A71, UniProt B9VUU3)", "T1 construct": "N-terminally truncated mature protein 2C residues 116-329, cut from the genome polyprotein; N-terminal MBP tag and C-terminal His6 (kept, MBP-Δ2C-(His)6); codon-optimised synthetic gene in pMALc5x, E. coli Rosetta 2(DE3) pLysS; active as hexamer", "assay": "malachite green ATPase assay", "format": "biochemical", "note": "pIC50: −log10 of the molar value.", "data": [{"smiles": "CNCCC(Oc1ccc(C(F)(F)F)cc1)c1ccccc1", "note": "(racemic) [fluoxetine, reference compound]", "values": [{"measurement": "pIC50", "value": 3.27}]}]}
